Reference: PubChem BioAssay AID485314 (National Center for Advancing Translational Sciences (NCATS), 2010)
About 4,500 (1.3%) of roughly 340,000 compounds were called active. Inconclusive results, whose numbers are uncertain, are shown with a selection of clear calls. Calls follow the shape of the dose curve; as a rule, active = well fitted inhibition curve with a large enough effect; inconclusive = small, poorly fitted or top-dose-only effect, or another doubt; inactive = no such curve, though single readings can be large or run the other way. Where the call is inconclusive, the potency comes from a doubtful curve fit. Some compounds were tested as several samples or in several runs, with calls that do not always agree.

Each compound was assayed against DNA polymerase beta (Homo sapiens) (UniProt P06746) (assay: qHTS Assay for Inhibitors of DNA Polymerase Beta). Conditions: Pol beta primer extension/strand displacement, fluorescence kinetic; activity change, negative = inhibition: at 114 µM (top of the series).
In short: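 Enzyme-only controls used 10 nM Pol beta; buffer lacking enzyme served as negative control. Compound preincubated 15 min, then 50 nM substrate added; 0 and 10 min reads at room temperature.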
% is scaled to controls: 0 for no effect and ±100 for the full control effect; potency is read from the fitted curve at half-maximal effect.

SMILES | Potency | activity change, negative = inhibition
O=C(c1cc(=O)c2ccccc2o1)N1CCN(c2ccccc2F)CC1 | inconclusive: 39.8 µM [inhibitor, partial curve, poor fit] | 
COc1ccc(CC(=O)Nc2ccc(-c3nc4cc(C)ccc4o3)c(O)c2)cc1OC | inconclusive: 1.58 µM [inhibitor, full curve, poor fit] | 
O=C(NCc1ccco1)c1cc(-c2cccs2)nc2ccccc12 |  | inactive: 5.09%
COc1ccc(OC)c(N(CC(=O)NCCSCc2ccc(C)cc2)S(C)(=O)=O)c1 |  | inactive: 42.9%
CCCN1CCC(Oc2cccc(C(=O)NCCc3ccccc3)c2)CC1 |  | inactive: 9.26%
CC(=O)c1cnc(SCC(=O)O)nc1C | inconclusive: 3.55 µM [inhibitor, full curve, poor fit] | 
CCOc1ccc2nc(N3CCC(C(=O)Nc4ccccc4CC)CC3)sc2c1 |  | inactive: 5.23%
C=CCSc1nc(=O)n2ccc(C)cc2n1 | inconclusive: 35.5 µM [inhibitor, partial curve] | 
O=C(CSC1=NC(=O)C(c2ccccc2)C(=O)N1)Nc1ccccc1[N+](=O)[O-] (centres undefined) | inconclusive: 35.5 µM [inhibitor, full curve] | 
Cc1ccc(-c2onc3ccc(C(=O)/C=C/N(C)C)cc23)cc1 | inconclusive: 20 µM [inhibitor, full curve] | 
CCOc1cc(C2C3=C(CCCC3=O)OC3=C2C(=O)CCC3)cc([N+](=O)[O-])c1O | inconclusive: 0.708 µM [inhibitor, full curve, poor fit] | 
CCOC(=O)C1=C(CN2CCc3ccccc32)NC(=O)NC1c1cccc([N+](=O)[O-])c1 (centres undefined) | inconclusive: 0.1 µM [inhibitor, full curve, poor fit] | 
COc1ccccc1CNS(=O)(=O)c1ccc2c(c1)CC(=O)N2C | inconclusive: 39.8 µM [inhibitor, single point] | 
O=C1N=c2ccccc2=C1c1sc(NS(=O)(=O)Cc2ccccc2)nc1O |  | inactive: -3.81%
COc1ccc(-n2ncc3c2ncn2nc(COc4ccc(Cl)cc4)nc32)cc1 |  | inactive: 2.38%
Cc1oc2c(cc(NS(=O)(=O)c3ccc(C(C)C)cc3)c3ccccc32)c1C(=O)O | active: 50.1 µM | 
CN(Cc1c(C(=O)N/N=C/c2cccc(F)c2)nnn1-c1nonc1N)c1ccccc1 | inconclusive: 35.5 µM [inhibitor, partial curve, poor fit] | 
COC(=O)C1=C(O)/C(=C\c2ccc(CNC(=O)C(=O)Nc3ccc(C)cc3)o2)N=C1C | inconclusive: 25.1 µM [inhibitor, full curve, poor fit] | 
COc1cc(-c2nc3cnccn3c2Nc2ccc(C)cc2)ccc1O | inconclusive: 15.8 µM [inhibitor, partial curve] | 
CCn1c(=O)cc(SCC(=O)NCc2cccnc2)c2ccccc21 | inconclusive: 3.55 µM [inhibitor, single point] | 
O=C1N=c2ccc([N+](=O)[O-])cc2=C1c1sc(=O)[nH]c1O |  | inactive: 1.13%
CCCc1cc(=O)oc2cc(OC3CCCCC3=O)ccc12 (centres undefined) | inconclusive: 89.1 µM [inhibitor, single point] | 

SMILES | Potency | activity change, negative = inhibition
Cc1ccc(C2/C(=C(/O)c3ccccc3)C(=O)C(=O)N2CCN2CCOCC2)o1 (centres undefined) |  | inactive: 16.2%
CCc1nnc2c(Nc3cccc(F)c3)nc3ccc(C(=O)c4ccccc4)cc3n12 |  | inactive: 21.6%
O=C(/C=C/c1ccc(Cl)c([N+](=O)[O-])c1)Nc1cccc(NC(=O)c2ccco2)c1 | inconclusive: 44.7 µM [inhibitor, partial curve] | 
COc1ccc(-c2nnc(-c3cc4c(ccc5ccccc54)oc3=O)o2)cc1 | inconclusive: 39.8 µM [inhibitor, single point] | 
C/C(=N/NC(=O)CNC(=O)CCc1ccccc1)c1ccc(Cl)c(Cl)c1 | inconclusive: 8.91 µM [inhibitor, partial curve] | 
C=CCn1c(SCC(=O)Nc2nccs2)nnc1-c1ccco1 | inconclusive: 0.631 µM [inhibitor, full curve, poor fit] | 
CCn1c(SCC(=O)Nc2ccc(C)cc2)nc2nc3c(cc2c1=O)CCCC3 | inconclusive: 3.55 µM [inhibitor, single point] | 
O=c1c2c3nc4ccccc4nc3n(/N=C/c3ccco3)c2ncn1CCC1=CCCCC1 | active: 28.2 µM | 
O=C(NCC1CCCO1)/C(=C/c1cn(-c2ccccc2)nc1-c1cccnc1)NC(=O)c1ccccc1 (centres undefined) | inconclusive: 4.47 µM [inhibitor, full curve, poor fit] | 
Cc1cc(=O)n2[nH]c(-c3ccsc3-n3c(C)ccc3C)cc2n1 |  | inconclusive: -125% [inhibitor]
CCC(C)Cn1c(/C=C/c2ccccc2)nc2ccccc21 (centres undefined) |  | inactive: 17.2%
CCN(CC)CCN1C(=O)c2oc3ccc(F)cc3c(=O)c2C1c1ccncc1 (centres undefined) | inconclusive: 89.1 µM [inhibitor, single point] | 
O=C(Nc1cccc2nsnc12)c1ccc(-c2cccc(Cl)c2)o1 | inconclusive: 56.2 µM [inhibitor, single point] | 
CCC(C)c1ccc(NC(=O)C2CCCN(c3ncccn3)C2)cc1 (centres undefined) | inconclusive: 7.94 µM [inhibitor, full curve] | 
CN(C)S(=O)(=O)N1CCC(Oc2cccc(C(=O)N3CCCCCC3)c2)CC1 |  | inactive: -8.14%
Cc1ccc(CNC(=O)CC(C)CC2=NS(=O)(=O)c3ccccc3N2)cc1 (centres undefined) |  | inactive: 30.7%
O=C(Cn1nc(-c2ccccc2)c2ccccc2c1=O)Nc1ccc2c(c1)nc1n2CCOC1 | inconclusive: 50.1 µM [inhibitor, partial curve] | 
COc1ccc(NC(=O)c2c(NCc3ccc(N(C)C)cc3)sc3c2CCC3)cc1 |  | inactive: 8.43%
COc1ccccc1C(OC(=O)c1ccco1)C(=O)NCc1ccc(F)cc1 (centres undefined) |  | inactive: -7.86%
Cc1cccnc1NC(=S)NC(=O)/C=C/c1ccco1 |  | inactive: -10.5%
CCOc1ccc(NC(=O)c2cccc3c2C(=O)N(CC2CCCO2)C3)cc1 (centres undefined) | inconclusive: 56.2 µM [inhibitor, partial curve, poor fit] | 
O=C(CSc1nc2ccsc2c(=O)n1CC1CCC(C(=O)O)CC1)c1ccc(Cl)cc1 (centres undefined) | active: 22.4 µM | 

By substructure: the compounds so far with an NH in an aromatic ring (2)
SMILES | Potency | activity change, negative = inhibition
O=C1N=c2ccc([N+](=O)[O-])cc2=C1c1sc(=O)[nH]c1O |  | inactive: 1.13%
Cc1cc(=O)n2[nH]c(-c3ccsc3-n3c(C)ccc3C)cc2n1 |  | inconclusive: -125% [inhibitor]
